Source: article PMC5640428
No constants are given. Whether binding was seen depends on the method and setting. Binding seen in cells or lysates may run through a third protein. A yes stands for co-enrichment or nearness to the bait. Other partners may have been found.

B1: DLST (protein, UniProt Q9D2G2 69-454)
chain: NDVITVQTPAFAESVTEGDVRWEKAVGDAVAEDEVVCEIETDKTSVQVPSPANGIIEALLVPDGGKVEGGTPLFTLRKTGAAPAKAKPAETPAPAHKAEPAAPAAPPPPAAPVLTQMPPVPSPSQPPSSKPVSAIKPTAAPPLAEAGAAKGLRSEHREKMNRMRQRIAQRLKEAQNTCAMLTTFNEVDMSNIQEMRARHKDAFLKKHNLKLGFMSAFVKASAFALQEQPVVNAVIDDATKEVVYRDYIDISVAVATPRGLVVPVIRNVETMNYADIERTINELGEKARKNELAIEDMDGGTFTISNGGVFGSLFGTPIINPPQSAILGMHAIFDRPVAVGGKVEVRPMMYVALTYDHRLIDGREAVTFLRKIKAAVEDPRVLLLDL
B2: PITPNM2 (protein, UniProt Q6ZPQ6 1-1335)
chain: MIIKEYRIPLPMTVDEYRIAQLYMIQKKSRNETHGQGSGVEILENRPYTDGPGGSGQYTHKVYHVGMHIPGWFRSILPKAALRVVEESWNAYPYTRTRFTCPFVEKFSIDIETFYKTDTGENNNVFNLSPVEKSQLITDIIDIVKDPVPPSEYKTEEDPKLFQSVKTCRGPLSENWIQEYKKRLLPIMCAYKLCKVEFRYWGMQSKIERFIHDTGLRRVMVRAHRQAWCWQDEWYGLTMEKIRELEREVQLMLSRKMAQFSEEGPSELSKDSATKDQASGTTSDPGSKNGEPLGRGLKKQWSTSSKSSRSSKRGASPSRHSISEWRMQSIARDSDEGSEEEFFDAHENLYCTEEKQAKDMTKWNSNDLMDKMESPEPEESQDEIYQQSGSEFRVASSVEQLNIIEDEVSQPLAAPPSKIHVLLLVLHGGTILDTGAGDPSSKQGDTNTITNVFDTVMRVHYPSALGHLAIRLVPCPPICADAFALVSNLSPYGHDEGCLSSSQDHIPLAALPLLATSSPQYQEAVATVIQRANLAYGDFIKSQEGVTFNGQVCLIGDCVGGILAFDALCYSGQPVSESQSSSRRGSVVSMQDADLLSPGTLANAAHCSGGSGGGGSGGSSLESSRHLSRSNIDIPRSNGTEDSRRQLPRKRSDSSTYELDTIQQHQAFLSSLHASVLRNEPSSRRSSSSTMLDGAGALGKFDFEIADLFLFGCPLGLVLALRKTVIPSLDVFQLRPACQQVYNLFHPADPSASRLEPLLERRFHSLPPFSIPRYQRYPLGDGCSTLLADVLQTHNTVFQEHAAPSSPGTAPAGRGFRRASEISIASQVSGMAESYTASSIAQKGPSSLNHTPSIRRLSLLALPPPSPTTQGPRARARQVSPNLERAPCLPDLDIGEVAAKWWGQKRIDYALYCPDALTAFPTVALPHLFHASYWESTDVVSFLLRQVMRHDSSSILELDGKEVSVFTPSQPRERWQRKRTHVKLRNVAANHRINDAVANEDGPQVVTGRFMYGPLDMVTLTGEKVDVHIMTQPPSGEWLHLDTLVTNSSGRVSYTIPETHRLGVGVYPIKMVVRGDHTFADSYITVLPRGTEFVVFSIDGSFAASVSIMGSDPKVRAGAVDVVRHWQDLGYLIIYVTGRPDMQKQRVVAWLAQHNFPHGVVSFCDGLVHDPLRHKANFLKLLISELHLRAHAAYGSTKDVAVYNSISLSPMHIYIVGRPTKKLQQQCQFITDGYAAHLAQLKYNHRARPARNTATRMALRKGSFGLPGQSDFLRSRNHLLRTISAQPSGPSHRHDRTQTQMDSEQRGQRSMSVAASCWGRAMAGRLEPGAATGPK
B3: ACO2 (protein, UniProt Q99KI0 28-780)
chain: QRAKVAMSHFEPSEYIRYDLLEKNINIVRKRLNRPLTLSEKIVYGHLDDPANQEIERGKTYLRLRPDRVAMQDATAQMAMLQFISSGLPKVAVPSTIHCDHLIEAQVGGEKDLRRAKDINQEVYNFLATAGAKYGVGFWRPGSGIIHQIILENYAYPGVLLIGTDSHTPNGGGLGGICIGVGGADAVDVMAGIPWELKCPKVIGVKLTGSLSGWTSPKDVILKVAGILTVKGGTGAIVEYHGPGVDSISCTGMATICNMGAEIGATTSVFPYNHRMKKYLSKTGRTDIANLAEEFKDHLVPDPGCQYDQVIEINLNELKPHINGPFTPDLAHPVADVGTVAEKEGWPLDIRVGLIGSCTNSSYEDMGRSAAVAKQALAHGLKCKSQFTITPGSEQIRATIERDGYAQILRDVGGIVLANACGPCIGQWDRKDIKKGEKNTIVTSYNRNFTGRNDANPETHAFVTSPEIVTALAIAGTLKFNPETDFLTGKDGKKFKLEAPDADELPRSDFDPGQDTYQHPPKDSSGQRVDVSPTSQRLQLLEPFDKWDGKDLEDLQILIKVKGKCTTDHISAAGPWLKFRGHLDNISNNLLIGAINIENGKANSVRNAVTQEFGPVPDTARYYKKHGIRWVVIGDENYGEGSSREHAALEPRHLGGRAIITKSFARIHETNLKKQGLLPLTFADPSDYNKIHPVDKLTIQGLKDFAPGKPLKCVIKHPNGTQETILLNHTFNETQIEWFRAGSALNRMKELQQ
B4: SLC4A10 (protein, UniProt Q5DTL9 1-1118)
chain: MEIKDQGAQMEPLLPTRNDEEAVVDRGGTRSILKTHFEKEDLEGHRTLFIGVHVPLGGRKSHRRHRHRGHKHRKRDRERDSGLEDGRESPSFDTPSQRVQFILGTEDDDEEHLPHDLFTELDEICWREGEDAEWRETARWLKFEEDVEDGGERWSKPYVATLSLHSLFELRSCILNGTVLLDMHANTIEEIADMVLDQQVSSGQLNEDVRHRVHEALMKQHHHQNQKKLANRIPIVRSFADIGKKQSEPNSMDKNAGQVVSPQSAPACAENKNDVSRENSTVDFSKGLGGQQKGHTSPCGMKQRLDKGPPHQQEREVDLHFMKKIPPGAEASNILVGELEFLDRTVVAFVRLSPAVLLQGLAEVPIPSRFLFILLGPLGKGQQYHEIGRSIATLMTDEVFHDVAYKAKDRNDLVSGIDEFLDQVTVLPPGEWDPSIRIEPPKNVPSQEKRKIPAVPNGTAAHGEAEPHGGHSGPELQRTGRIFGGLILDIKRKAPFFWSDFRDAFSLQCLASFLFLYCACMSPVITFGGLLGEATEGRISAIESLFGASMTGIAYSLFGGQPLTILGSTGPVLVFEKILFKFCKEYGLSYLSLRASIGLWTATLCIILVATDASSLVCYITRFTEEAFASLICIIFIYEALEKLFELSETYPINMHNDLELLTQYSCNCMEPHSPSNDTLKEWRESNLSASDIIWGNLTVSECRSLHGEYVGRACGHGHPYVPDVLFWSVILFFSTVTMSATLKQFKTSRYFPTKVRSIVSDFAVFLTILCMVLIDYAIGIPSPKLQVPSVFKPTRDDRGWFVTPLGPNPWWTIIAAIIPALLCTILIFMDQQITAVIINRKEHKLKKGCGYHLDLLMVAVMLGVCSIMGLPWFVAATVLSITHVNSLKLESECSAPGEQPKFLGIREQRVTGLMIFILMGSSVFMTSILKFIPMPVLYGVFLYMGASSLKGIQLFDRIKLFWMPAKHQPDFIYLRHVPLRKVHLFTVIQMSCLGLLWIIKVSRAAIVFPMMVLALVFVRKLMDFLFTKRELSWLDDLMPESKKKKLEDAEKEEEQSMLAMEDEGTVQLPLEGHYRDDPSVINISDEMSKTAMWGNLLVTADNSKEKESRFPSKSSPS
B5: YWHAG (protein, UniProt P61982 1-247)
chain: MVDREQLVQKARLAEQAERYDDMAAAMKNVTELNEPLSNEERNLLSVAYKNVVGARRSSWRVISSIEQKTSADGNEKKIEMVRAYREKIEKELEAVCQDVLSLLDNYLIKNCSETQYESKVFYLKMKGDYYRYLAEVATGEKRATVVESSEKAYSEAHEISKEHMQPTHPIRLGLALNYSVFYYEIQNAPEQACHLAKTAFDDAIAELDTLNEDSYKDSTLIMQLLRDNLTLWTSDQQDDDGGEGNN
B6: CPSF6 (protein, UniProt Q6NVF9 1-551)
chain: MADGVDHIDIYADVGEEFNQEAEYGGHDQIDLYDDVISPSANNGDAPEDRDYMDTLPPTVGDDVGKGAAPNVVYTYTGKRIALYIGNLTWWTTDEDLTEAVHSLGVNDILEIKFFENRANGQSKGFALVGVGSEASSKKLMDLLPKRELHGQSPVVTPCNKQFLSQFEMQSRKTTQSGQMSGEGKAGPPGGGSRAAFPQGGRGRGRFPGAVPGGDRFPGPAGPGGPPPPFPAGQTPPRPPLGPPGPPGPPGPPPPGQVLPPPLAGPPNRGDRPPPPVLFPGQPFGQPPLGPLPPGPPPPVPGYGPPPGPPPPQQGPPPPPGPFPPRPPGPLGPPLTLAPPPHLPGPPPGAPPPAPHVNPAFFPPPTNSGMPTSDSRGPPPTDPYGRPPPYDRGDYGPPGREMDTARTPLSEAEFEEIMNRNRAISSSAISRAVSDASAGDYGSAIETLVTAISLIKQSKVSADDRCKVLISSLQDCLHGIESKSYGSGSRRERSRERDHSRSREKSRRHKSRSRDRHDDYYRERSRERERHRDRDRDRDRERDREREYRHR

molecular target: T1, native KCC2 (K+-Cl- cotransporter KCC2) (mouse (endogenous in brain)) (UniProt Q91V14); experiment: affinity purification with mass spectrometry; anti-KCC2 antibodies (C-terminal, N-terminal KCC2b, pS940) cross-linked with DMP to GammaBind IgG beads; C12E9-solubilised whole-brain membrane fractions of P5 and P50 mice; 4 hr, 4°C; parallel IgG/IgY controls
T1 sequence: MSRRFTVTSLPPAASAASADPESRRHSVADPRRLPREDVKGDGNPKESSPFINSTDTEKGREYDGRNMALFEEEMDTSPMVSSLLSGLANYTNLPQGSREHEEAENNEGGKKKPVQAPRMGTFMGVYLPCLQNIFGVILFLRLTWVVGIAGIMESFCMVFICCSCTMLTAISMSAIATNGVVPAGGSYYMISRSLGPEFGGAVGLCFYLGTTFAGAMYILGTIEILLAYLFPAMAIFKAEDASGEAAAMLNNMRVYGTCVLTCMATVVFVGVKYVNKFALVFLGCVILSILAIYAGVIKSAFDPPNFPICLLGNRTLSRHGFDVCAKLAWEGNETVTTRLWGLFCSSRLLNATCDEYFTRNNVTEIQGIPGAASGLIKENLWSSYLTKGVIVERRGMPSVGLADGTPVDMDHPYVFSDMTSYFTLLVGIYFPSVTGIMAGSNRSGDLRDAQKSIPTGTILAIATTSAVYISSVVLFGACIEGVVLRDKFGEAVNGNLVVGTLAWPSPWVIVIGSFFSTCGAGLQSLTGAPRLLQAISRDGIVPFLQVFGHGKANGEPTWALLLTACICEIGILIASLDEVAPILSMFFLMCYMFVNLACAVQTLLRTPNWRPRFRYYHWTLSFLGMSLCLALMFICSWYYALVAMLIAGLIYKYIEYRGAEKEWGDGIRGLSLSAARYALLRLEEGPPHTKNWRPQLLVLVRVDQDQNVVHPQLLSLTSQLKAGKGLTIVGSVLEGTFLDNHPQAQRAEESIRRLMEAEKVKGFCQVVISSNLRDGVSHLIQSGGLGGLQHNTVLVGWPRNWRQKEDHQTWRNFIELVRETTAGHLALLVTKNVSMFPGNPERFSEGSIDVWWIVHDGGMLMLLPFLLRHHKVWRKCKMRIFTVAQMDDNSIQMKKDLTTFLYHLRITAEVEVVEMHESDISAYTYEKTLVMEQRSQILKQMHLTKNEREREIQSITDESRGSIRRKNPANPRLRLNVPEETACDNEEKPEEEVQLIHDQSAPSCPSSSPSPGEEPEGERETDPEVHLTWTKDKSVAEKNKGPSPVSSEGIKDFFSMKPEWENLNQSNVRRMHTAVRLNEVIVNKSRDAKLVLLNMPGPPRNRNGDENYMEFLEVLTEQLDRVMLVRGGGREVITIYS

Row | Binder | binding
1 | B1 | binds
2 | B2 | binds
3 | B3 | binds
4 | B4 | binds
5 | B5 | binds
6 | B6 | binds
